# In the supplement of paper PMC9135407:
# Where “and” joins values, the source holds several entries; their conditions need not be identical. Equal values may be shown once. Where a name gives a salt, the structure may show the parent alone. ± gives the standard deviation of the averaged measurements. The list shows a part of the results. Baselines shift from plate to plate; read single values as rough.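 Assay uses culture-activated primary human stellate myofibroblasts; lipid droplet recovery indicates inactivation. Measured: proportion of Hoechst-counted cells over a plate-specific Bodipy cutoff, duplicate wells, DMSO and nortriptyline as per-plate negative and positive controls. A hit scores, control-normalized, above the plate's top-tenth-percentile nortriptyline wells or ranks among its three best wells. Final well concentrations not reported.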
# Tested on: primary human hepatic stellate cells (donor 1)
# Assay: percent Bodipy-positive cells; higher = more lipid droplet accumulation
# Settings: 48 h
# [1] = library stock concentration: 10 mM
# [2] = library stock concentration: 3.33 mM
# [3] = library stock concentration: 1 mM
# [4] = library stock concentration: 9.9 mM
# [5] = library stock concentration: 8.3 mM
# [6] = library stock concentration: 80 uM
# [7] = library stock concentration: 400 uM
# [8] = library stock concentration: 2 mM
smiles,measurement,setting,value
COc1ccc2c(c1O)-c1c(OC)c(OC)cc3c1[C@H](C2)N(C)CC3 [S-isocorydine (+)],percent Bodipy-positive cells,[1],39.9 ± 21%
COc1ccc2c(c1O)-c1c(OC)c(OC)cc3c1[C@H](C2)N(C)CC3 [Isocorydine (+)],percent Bodipy-positive cells,,33.3 ± 0.73%
NC(=O)c1cc([N+](=O)[O-])cc([N+](=O)[O-])c1 [Nitromide],percent Bodipy-positive cells,library stock concentration: 9.5 mM,4.12 ± 1.2%
same,percent Bodipy-positive cells,[1],15 ± 2.8%
CCOC(=O)CC(SP(=S)(OC)OC)C(=O)OCC (stereo not drawn),percent Bodipy-positive cells,[1],31.5 ± 3.1%
CC(C)[C@]12O[C@H]1[C@@H]1O[C@]13[C@]1(O[C@H]1C[C@H]1C4=C(CC[C@@]13C)C(=O)OC4)[C@@H]2O [Triptolide (PG490)],percent Bodipy-positive cells,[2],52 ± 8.6%
same,percent Bodipy-positive cells,[1],70.6 ± 14%
CC(C)[C@]12O[C@H]1[C@@H]1O[C@]13[C@]1(O[C@H]1C[C@H]1C4=C(CC[C@@]13C)C(=O)OC4)[C@@H]2O,percent Bodipy-positive cells,[1],42.6 ± 13%
NCC(CC(=O)O)c1ccc(Cl)cc1 (stereo not drawn) [(?)-Baclofen],percent Bodipy-positive cells,[1],58.5 ± 9.6%
NCC(CC(=O)O)c1ccc(Cl)cc1 (stereo not drawn) [Baclofen],percent Bodipy-positive cells,library stock concentration: 9.4 mM,2.99 ± 0.12%
same,percent Bodipy-positive cells,[1],20.9 ± 17%
"CN1CC[C@@]2(C)c3cc(O)ccc3N(C)C12 (single isomer, unassigned; (-)) [(-)-Eseroline fumarate]",percent Bodipy-positive cells,[1],96.5 ± 1.2%
CC(C)(C)c1cc(C=C(C#N)C#N)cc(Br)c1O,percent Bodipy-positive cells,[2],11.2% and 10.7%
same,percent Bodipy-positive cells,[1],24.4 ± 4.4%
CC(=O)[C@H]1CC[C@H]2[C@@H]3CC[C@H]4C[C@H](O)CC[C@]4(C)[C@H]3CC[C@]12C [5alpha-Pregnan-3alpha-ol-20-one],percent Bodipy-positive cells,[1],19.3 ± 7.3%
CCN1C[C@]2(C)CC[C@H](O)[C@]34C1[C@@H](C[C@H]23)[C@@]1(O)C[C@H](OC)[C@H]2C[C@@H]4[C@@H]1[C@H]2O [Karakoline],percent Bodipy-positive cells,,12.5 ± 1%
COc1cc(CNC(=O)CCCCCCC(C)C)c(I)cc1O,percent Bodipy-positive cells,[3],7.29 ± 3.7%
NC(=S)N/N=C/c1coc2ccccc2c1=O.[Cl][Cu][Cl],percent Bodipy-positive cells,[1],3.33 ± 0.41%
O=C(NCCN1CCC2(CC1)C(=O)NCN2c1ccccc1)c1ccc2ccccc2c1,percent Bodipy-positive cells,[3],14.6 ± 1.8%
CC(N)Cc1ccc(O)cc1 (stereo not drawn) [Hydroxyamphetamine hydrobromide],percent Bodipy-positive cells,[1],29.2 ± 8.9%
"CN1CCC2(C)c3cc(O)ccc3N(C)C12 (single isomer, unassigned; (-)) [(-)-Eseroline fumarate salt]",percent Bodipy-positive cells,,31.808 ± 0.015%
O=C1NC(=O)c2c1c1c3ccccc3n3c1c1c2c2ccccc2n1[C@H]1CC[C@@H]3O1,percent Bodipy-positive cells,[2],68.2 ± 7.2%
C=C1[C@@H](C)[C@H]2[C@H](Cc3ccccc3)NC(=O)C23[C@H](OC(C)=O)/C=C/[C@](C)(O)C(=O)[C@@H](C)C/C=C/[C@H]3[C@@H]1O (stereo partly drawn) [Cytochalasin D],percent Bodipy-positive cells,[4],99.1 ± 1.3%
Cc1onc(O)c1CC(N)C(=O)O (racemic) [(RS)-AMPA hydrobromide],percent Bodipy-positive cells,[1],8.88 ± 0.89%
Cc1onc(O)c1CC(N)C(=O)O (racemic),percent Bodipy-positive cells,[1],6.24 ± 2.9%
CN(C)C(=S)SSC(=S)N(C)C [Thiram],percent Bodipy-positive cells,[5],96.3 ± 2.1%
C=C/C=C\CC1=C(C)[C@@H](OC(=O)[C@@H]2[C@@H](/C=C(\C)C(=O)OC)C2(C)C)CC1=O.C=C/C=C\CC1=C(C)[C@@H](OC(=O)[C@@H]2[C@@H](C=C(C)C)C2(C)C)CC1=O,percent Bodipy-positive cells,[1],39.9 ± 10%
NCc1cccnc1,percent Bodipy-positive cells,[1],25.9 ± 4%
CC(NC(C)(C)C)C(=O)c1cccc(Cl)c1 (stereo not drawn) [Amfebutamone],percent Bodipy-positive cells,[5],9.55 ± 1.1%
CC(NC(C)(C)C)C(=O)c1cccc(Cl)c1 (stereo not drawn) [Bupropion],percent Bodipy-positive cells,library stock concentration: 7.2 mM,47 ± 11%
same,percent Bodipy-positive cells,[1],47.4 ± 4.6%
CC(NC(C)(C)C)C(=O)c1cccc(Cl)c1 (stereo not drawn) [Bupropion hydrochloride],percent Bodipy-positive cells,,25.3 ± 9.1%
same,percent Bodipy-positive cells,[1],38.5 ± 6.9%
CC(NC(C)(C)C)C(=O)c1cccc(Cl)c1 (stereo not drawn) [Amfebutamone HCl],percent Bodipy-positive cells,[2],16.3 ± 0.62%
same,percent Bodipy-positive cells,[1],9.12 ± 2.2%
CC(NC(C)(C)C)C(=O)c1cccc(Cl)c1 (stereo not drawn),percent Bodipy-positive cells,[1],17.8 ± 0.89%
N[C@]1(C(=O)O)CC[C@H](C(=O)O)C1,percent Bodipy-positive cells,[1],32.8 ± 6.3%
Oc1ccc2c3c1O[C@H]1c4[nH]c5ccccc5c4C[C@@]4(O)[C@@H](C2)N(CC2CC2)CC[C@]314 [Naltrindole],percent Bodipy-positive cells,[1],78.5 ± 5.5%
Oc1ccc2c3c1O[C@H]1c4[nH]c5ccccc5c4C[C@@]4(O)[C@@H](C2)N(CC2CC2)CC[C@]314 [Naltrindole HCl],percent Bodipy-positive cells,library stock concentration: 4.8 mM,41.2 ± 9.7%
CN(C)[C@@H]1C(=O)C(C(N)=O)=C(O)[C@@]2(O)C(=O)C3=C(O)c4c(O)cccc4[C@@](C)(O)[C@H]3C[C@@H]12 [Tetracycline HCl],percent Bodipy-positive cells,[2],11.8 ± 5.8%
same,percent Bodipy-positive cells,[1],11.3 ± 6.8%
"Cc1cc(C)cc(C(=O)OC2C[C@H]3CC[C@@H](C2)N3C)c1 (stereo partly drawn) [Tropanyl-3,5-dimethylbenzoate]",percent Bodipy-positive cells,[1],49.2 ± 12%
C[C@@H]1O[C@@H](O[C@H]2CC[C@]3(C=O)[C@H]4CC[C@]5(C)[C@@H](C6=CC(=O)OC6)CC[C@]5(O)[C@@H]4CC[C@]3(O)C2)[C@H](O)[C@H](O)[C@H]1O [Convallatoxin],percent Bodipy-positive cells,[1],87.7 ± 3.2%
CCCCC/C=C\C/C=C\CCCCCCCC(=O)NCCO [Linoleoyl Ethanolamide],percent Bodipy-positive cells,[3],6.71 ± 1.9%
CN1[C@@H]2C[C@@H](OC(=O)[C@H](CO)c3ccccc3)C[C@H]1[C@@H]1O[C@@H]12 [Scopolamine hydrobromide],percent Bodipy-positive cells,library stock concentration: 5.2 mM,19.2 ± 3%
same,percent Bodipy-positive cells,[1],11.5% and 10.5%
CN1[C@@H]2C[C@@H](OC(=O)[C@H](CO)c3ccccc3)C[C@H]1[C@@H]1O[C@@H]12 [Scopolamine HBr],percent Bodipy-positive cells,[2],7.415 ± 0.012%
same,percent Bodipy-positive cells,library stock concentration: 6.6 mM,7.25 ± 2.7%
same,percent Bodipy-positive cells,[1],13.7 ± 1.6%
CN1[C@@H]2C[C@@H](OC(=O)[C@H](CO)c3ccccc3)C[C@H]1[C@@H]1O[C@@H]12 [(-)-Scopolamine hydrobromide],percent Bodipy-positive cells,[1],16.5 ± 1.6%
CN1[C@@H]2C[C@@H](OC(=O)[C@H](CO)c3ccccc3)C[C@H]1[C@@H]1O[C@@H]12 [Scopolamine hydrochloride],percent Bodipy-positive cells,,8.59 ± 0.44%
O=C(O)C1=CCCN(CCOC(c2ccc(C(F)(F)F)cc2)c2ccc(C(F)(F)F)cc2)C1 [CI 966 hydrochloride],percent Bodipy-positive cells,[1],8.65 ± 2.5%
CN[C@@H](C)[C@@H](O)c1ccccc1 [Pseudoephedrine hydrochloride],percent Bodipy-positive cells,[4],16.3 ± 5.4%
same,percent Bodipy-positive cells,[1],10.8 ± 0.14%
C[C@]12CC[C@H](O)C[C@H]1CC[C@@H]1[C@@H]2C[C@@H](O)[C@]2(C)[C@@H](C3=CC(=O)OC3)CC[C@]12O [Digoxigenin],percent Bodipy-positive cells,,70.4 ± 7.2%
C/C(=C\c1csc(C)n1)[C@@H]1C[C@@H]2O[C@@H]2CCC[C@H](C)[C@H](O)[C@@H](C)C(=O)C(C)(C)[C@@H](O)CC(=O)O1 [Epothilone A],percent Bodipy-positive cells,[2],11.2 ± 3.3%
same,percent Bodipy-positive cells,[1],19.4 ± 5.1%
COC1=C[C@@H]2[C@@H]3Cc4ccc(OC)c(O)c4[C@]2(CCN3C)CC1=O [Sinomenine],percent Bodipy-positive cells,[2],6.59 ± 1.7%
same,percent Bodipy-positive cells,[1],14.1 ± 4%
CCCCC/C=C\C/C=C\C/C=C\C=C\[C@H](CCCC(=O)O)OO,percent Bodipy-positive cells,library stock concentration: 100 uM,12.6 ± 9.4%
COc1ccc(N(C(=O)Oc2c(C)cccc2C)c2ccnc(Nc3ccc(N4CCN(C)CC4)cc3)n2)c(OC)c1,percent Bodipy-positive cells,[6],14.3 ± 0.16%
same,percent Bodipy-positive cells,[7],26.5 ± 2.4%
same,percent Bodipy-positive cells,[8],18.3 ± 12%
same,percent Bodipy-positive cells,[2],83.6 ± 9.9%
same,percent Bodipy-positive cells,[1],98.9% and 100%
CN(C)CCc1ccc(O)cc1 [Hordenine],percent Bodipy-positive cells,[2],10 ± 2.3%
same,percent Bodipy-positive cells,[1],15.5 ± 7.5%
CC[C@@H]1C=CC=CC[C@H](C)[C@@H](O)[C@@H](C)C(=O)[C@H](C)[C@@H](O)[C@H](C)C(=O)[C@H](C)[C@@H](O)[C@H](C)C=CC(=O)O[C@H]2[C@@H](C)[C@@H](CC1)O[C@@]1(CC[C@@H](C)[C@@H](C[C@H](C)O)O1)[C@@H]2C,percent Bodipy-positive cells,[1],13.5 ± 4.6%
CCOC(=O)C1(c2ccccc2)CCN(CCC(C#N)(c2ccccc2)c2ccccc2)CC1,percent Bodipy-positive cells,[1],28.5 ± 7.8%
NC1=NC(=O)C(c2ccccc2)O1 (stereo not drawn) [Pemoline],percent Bodipy-positive cells,[1],10.7 ± 1.8%
CC(=O)[C@H]1CC[C@H]2[C@@H]3CC[C@H]4C[C@](C)(O)CC[C@]4(C)[C@H]3CC[C@]12C [Ganaxolone],percent Bodipy-positive cells,[1],30.5% and 9.33%
Cc1sc2ccccc2c1CC1=NCCN1 [Benazoline oxalate],percent Bodipy-positive cells,[1],76.9 ± 1.2%
CCCCCCC(C)(C)c1cc(OC)c2c(c1)OC(C)(C)[C@@H]1CC=C(C)C[C@@H]21,percent Bodipy-positive cells,[3],7.7 ± 1.7%
C[C@@H]1O[C@@H](O[C@H]2C[C@@H](O)[C@]3(CO)[C@H]4[C@H](O)C[C@]5(C)[C@@H](C6=CC(=O)OC6)CC[C@]5(O)[C@@H]4CC[C@]3(O)C2)[C@H](O)[C@H](O)[C@H]1O [Ouabain],percent Bodipy-positive cells,[1],98.7 ± 1.2%
C[C@]12CCC3C(CC[C@]4(O)C[C@@H](O)CC[C@]34C=O)[C@@]1(O)CCC2C1=CC(=O)OC1 (stereo partly drawn) [Strophanthidin],percent Bodipy-positive cells,[1],90.8 ± 2%
"NCC(CC(=O)O)c1ccc(Cl)cc1 (racemic) [Baclofen (R,S)]",percent Bodipy-positive cells,,24.1 ± 7.7%
COc1cc(C(=O)OC2CC3CCC(C2)N3C)ccc1O (stereo not drawn) [Fillalbin],percent Bodipy-positive cells,,10.8 ± 0.56%
N[C@@H]1C[C@H]1c1ccccc1 [Tranylcypromine hydrochloride],percent Bodipy-positive cells,,36.6 ± 7%
same,percent Bodipy-positive cells,[1],23.4% and 14.7%
N[C@@H]1C[C@H]1c1ccccc1 [Tranylcypromine (2-PCPA) HCl],percent Bodipy-positive cells,[2],6.04 ± 5%
same,percent Bodipy-positive cells,[1],29.5 ± 9.9%
COc1ccc2c(c[n+](C)c3c4cc5c(cc4ccc23)OCO5)c1OC.Cl [Chelerythrine chloride],percent Bodipy-positive cells,[8],99.519 ± 0.037%
O=C(NC(COc1ccc2[nH]c(=O)[nH]c2c1)c1ccccc1)c1cccn(Cc2ccc(F)c(F)c2)c1=O (stereo not drawn),percent Bodipy-positive cells,[6],22.3 ± 12%
same,percent Bodipy-positive cells,[7],9.4 ± 2%
same,percent Bodipy-positive cells,[8],11.9 ± 7.1%
same,percent Bodipy-positive cells,[1],12.9 ± 0.23%
c1cc2cc(N3CCNCC3)ccc2cn1 [6-piperazin-1-yl-Isoquinoline (hydrochloride)],percent Bodipy-positive cells,[3],10.9 ± 4.4%
O[C@H]1[C@H](O)[C@@H](O)CN2CC[C@H](O)[C@H]12 [Castanospermine],percent Bodipy-positive cells,[1],7.49 ± 0.67%
same,percent Bodipy-positive cells,library stock concentration: 26.4 mM,23.3 ± 0.87%
[O-][n+]1ccccc1[S-].[O-][n+]1ccccc1[S-].[Zn+2] [Pyrithione zinc],percent Bodipy-positive cells,library stock concentration: 6.3 mM,78.4 ± 17%
same,percent Bodipy-positive cells,[1],32.1 ± 1.4%
CO[C@H]1CC[C@@H](O[C@H]2C[C@H]([C@]3(C)CC[C@]4(C[C@H](O)[C@@H](C)[C@@H]([C@@H](C)/C=C(\C)C(=O)[C@H](C)C[C@H](C)C(=O)O)O4)O3)O[C@]3(O[C@@H]([C@H]4O[C@@](O)(CO)[C@H](C)C[C@@H]4C)C[C@@H]3C)[C@@H]2C)O[C@@H]1C [Nanchangmycin],percent Bodipy-positive cells,[2],94.8 ± 2.4%
same,percent Bodipy-positive cells,[1],98.6 ± 1.9%
